# Among all 31,000 sequences or so, about 1,400 (4.5%) were called active.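 The calls were made as follows: active = median seed-adjusted z-score above 1 or below -1; inactive = the rest.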 The list shows a part of the results.
# Test: Novel Modifiers of Survival Motor Neuron (SMN) Protein: Gene Identification via Genome-wide siRNA Screen;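 also: luminescence tracks full-length SMN protein made from the SMN2 reporter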
# Conditions: HEK293T SMN2-luciferase reporter, siRNA knockdown, 72 h; actives lie on both sides
# How it was run: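 Each of three siRNAs per gene is reverse-transfected (1 pmol) into reporter HEK293T cells whose luciferase output tracks SMN protein level. After 72 h culture, ONE-Glo luminescence is control-normalized, log10-transformed and MAD-standardized; Common Seed Analysis deprioritizes seed-driven hits.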
row,Sequence,median seed-adjusted z-score
1,CCUGUUGAGUGUAAAAUCUTT against GTF2H2,inactive: -0.00624
2,CAUGAAUCCUUUACAGCAATT against RALB,inactive: -0.534
3,GCAAGUUGGAGAACGAGUATT against MED8,active: -1.61
4,CAGCCUACGUGAACACCUUTT against CLN3,inactive: 0.105
5,UGCAUAGCCUGGACACAGATT against FLT3LG,inactive: -0.166
6,GCUCAGUAUUUAAACAUCATT against COL9A2,inactive: 0.0208
7,CUCUGGAACCUGUUGAUUUTT against SERPINB13,inactive: 0.0593
8,GGAAACCUGUGAAACAACATT against PTGFR,inactive: 0
9,CCAUCGUGAUGAUAUUUGATT against SEC14L3,inactive: 0.308
10,GCACCAAGCAUUAUGAAAATT against SDCBP,inactive: 0.0325
11,CCAAGAUUCUUUGCCGCUATT against PAX7,inactive: -0.803
12,CCAGCUCAGAUAGCACAGATT against COG8,inactive: 0.0438
13,GAAAUUGCCUAUUACUCUUTT against SLC19A2,inactive: -0.679
14,CUGUUUAGCUUCAUGCAAATT against ARID3C,active: -1.32
15,CAGACUUGAUACAAACUAUTT against SPOCK3,inactive: 0.329
16,AGCUCCCUGCCUUUAAUAATT against CHPF,inactive: 0.248
17,GCAUCGUGGGCAUAGCGUATT against PCSK6,inactive: 0
18,CCUUAGAUCUCGCGAAGAATT against DCT,inactive: -0.184
19,GGGAAACGAUAUUCAUACATT against ADAMTS19,inactive: -0.39
20,ACAGAACUCGGGACCUUUUTT against H6PD,inactive: 0.069
21,AGCUAUAGCUGAUUGUGAATT against GRPEL2,inactive: 0.0821
22,AUAACUACCUGAUCAAGAATT against YWHAG,active: 1.98

row,Sequence,median seed-adjusted z-score
1,GUACCUAAGUUGGAGCUGATT against TRPT1,inactive: -0.671
2,CACUAACAUUAUCCGUAAATT against ZNF189,inactive: 0.0743
3,GGACAAGGCUAACAUCCCATT against HMGA1,inactive: 0.557
4,CCGGGAAAGUCUUAAUAGATT against CTSO,inactive: 0.322
5,GCAAGUUGACUAUCACGUUTT against POLR1A,inactive: 0.0814
6,CCAUUACACGGUUCGGGUATT against CAPN7,inactive: 0.125
7,GGAUCAUGCAAUCAACAAATT against MAPKAPK2,inactive: -0.543
8,GAAGAUCAACGGACGCGAATT against OLIG3,inactive: -0.598
9,AAAGAUCCAAGAUCAAGAATT against DLX5,inactive: 0.115
10,GGACAGCUCAAAACUCAGATT against MST1R,inactive: -0.278
11,GCAAAGAGAAUAGAAACUUTT against RGS16,inactive: 0
12,AGUGAAGUAUGUGAAUGUATT against METTL2B,inactive: 0.769
13,GGAUUAAUGUGACUGAGGUTT against IL11RA,inactive: -0.708
14,GGAGAAAAACGGCCAAGAGTT against HMGA2,inactive: -0.327
15,CCUCAGCUACGGUGUCUUUTT against MFNG,inactive: 0.377
16,GAAUGACCUUGAACAAUGATT against ABTB2,inactive: 0.432
17,CGACAGAGGCAGACACAGATT against BATF,inactive: -0.0501
18,GCCUAGGAGCGAGGACUUATT against DNAJC30,inactive: 0.329
19,GAGUAGUUGAUACCCGAAATT against SETX,inactive: -0.709
20,GAGUCUUGAGGGAAAACCATT against CDO1,inactive: 0.336
21,GCGGAAAAGGUAUCCCUCATT against SLC12A8,inactive: 0.113
22,CAGACAUUCUUCUCUAUAATT against CHRNA7,inactive: -0.485

# Quoted at random: seven records from the list, in no set order.
row,Sequence,median seed-adjusted z-score
19,GGGAAACGAUAUUCAUACATT against ADAMTS19,inactive: -0.39
3,GCAAGUUGGAGAACGAGUATT against MED8,active: -1.61
10,GCACCAAGCAUUAUGAAAATT against SDCBP,inactive: 0.0325
9,AAAGAUCCAAGAUCAAGAATT against DLX5,inactive: 0.115
15,CAGACUUGAUACAAACUAUTT against SPOCK3,inactive: 0.329
12,CCAGCUCAGAUAGCACAGATT against COG8,inactive: 0.0438
9,CCAUCGUGAUGAUAUUUGATT against SEC14L3,inactive: 0.308

# More records follow.

row,Sequence,median seed-adjusted z-score
1,GAUCAAUUACGAAAUCUCATT against MED30,active: -2.06
2,UCAACCCUCUGAUAGAAGATT against EID2,active: -1.04
3,GCUCGUAAGAGUGCAAGUATT against USPL1,active: -1.87
4,CUUCCGCAUUGAGAGCUAUTT against INPP5J,inactive: 0.223
5,AAAUCGCUUAUAUACCUAUTT against HBEGF,inactive: -0.903
6,AGAACAUGAUUGUAUAAUUTT against CALCB,inactive: 0
7,CACGAAAUGUAGAAUUACATT against SCN2A,inactive: 0
8,CUCUCGGACUUUUUCCAAATT against ADIPOR1,inactive: 0
9,GGUGCUGGAGUUAAUCUUATT against TP53I3,inactive: 0.244
10,GUAGAGUACGAAAAUCUAATT against ZNF433,inactive: 0
11,CCUCAGGGAAGUACCCAAATT against RNASE8,inactive: 0.00771
12,GAGACAUUCCAAUAGUUCATT against SEC11C,inactive: 0.508
13,GGCACAGCCUUGUAUGGAATT against PARP14,inactive: -0.289
14,CACUGUAUGGUAACGUGUUTT against POU3F4,inactive: -0.314
15,AAGUGGGAGUUACAUUAAATT against DLGAP2,inactive: 0.295
16,GAAUUCAUCCGGGAAAGGATT against GAS7,inactive: 0.335
17,GACUUGACCUUCCUAUUGATT against CTPS,inactive: 0.0943
18,CCGUGAAAGGACUCAGUAATT against USP16,inactive: -0.173
19,CAGUUAUGUUCGAAAGCAUTT against ZNF564,inactive: 0.382
20,GCAGUAGAGAAAUAAGACATT against DNAJC10,inactive: 0.0527
21,CACUGUUUCGACAAAAUCATT against F7,inactive: 0.277
22,GAGAUCGGGUUGUUGGUUATT against AACS,inactive: 0.232

row,Sequence,median seed-adjusted z-score
1,CAACUUUCAGAUCAGUGAATT against ARD1A,active: -1.05
2,GCACAGCUCUAGUUACAUUTT against ATP6V1G1,inactive: 0.311
3,AAGUUCUGAGAGAAAUAAATT against NDUFB1,inactive: 0
4,CCAGCAUACGUACAGGAAATT against ARHGDIA,inactive: 0.627
5,GGAACAUCACAGUUCGAAATT against ITGA1,inactive: 0.0281
6,GGUGCUCACGUGUCCUUAATT against AK1,inactive: -0.0471
7,GAUAUUGCACAAAUCUAUATT against UBE2D1,inactive: 0.508
8,CCUUCUCCACGCUCAACUATT against SLC19A1,inactive: 0
9,GGACCUCAAGGCCUACGAATT against FOXA2,inactive: 0.883
10,CCACGUUGAAAAUAAUCAATT against PDE5A,inactive: 0
11,GUAUUCCAGCGAAUCCGAUTT against PAK7,inactive: -0.202
12,GAAGAAUCUUUUCAGCAAATT against SAFB,inactive: -0.954
13,GCCUCCUUCUUUGACCGGATT against NACC1,active: 1.59
14,GAAAACCCACUAUCCUGAUTT against ALX3,inactive: -0.0707
15,GCCUUACCAUAGGUCAACATT against TRIM59,inactive: 0.941
16,CAAUGAUGAUCAUUACUCATT against MBOAT2,inactive: -0.282
17,CGAUUACUCCAAACUUCCATT against PAK3,inactive: 0
18,CCUUUAGCCGAAGCACUAATT against ZNF391,inactive: 0.056
19,GCCUGGAUGAAUUCGAUUATT against UBE4A,inactive: -0.285
20,GAAGUUGACUCUACUUUGATT against SDHB,inactive: 0.0872
21,CCUGAGCACAUAUAACUGUTT against ART4,inactive: -0.0808
22,CAGCUAUUACUAUGGUUAATT against PTBP2,inactive: 0.138

row,Sequence,median seed-adjusted z-score
1,CUACUAUCCUGGUUCUGGATT against PROS1,inactive: 0.436
2,GGCUUUAGGUGAGCCUUCATT against OGFOD2,inactive: 0.493
3,UCAUUGUCCUUGCCUCUUUTT against PAQR7,inactive: -0.0406
4,CCAAGUCUGUGAAUGUAAATT against SORD,inactive: 0.17
5,CCUCGUCAUUAAAGACAAATT against FBXO18,inactive: -0.417
6,AGACCUCGAUUUCACAGUATT against PRMT8,inactive: 0
7,GGAUUCUUAUGCUCGCUAUTT against RGS9,inactive: 0.0665
8,GCAUGAGAGCGACAUCUCATT against SLC12A5,inactive: -0.22
9,GGUGAAAAGUGGGAGUUAATT against TARS,inactive: 0.146
10,CGAUAUGAUUGGCCAGAGATT against GIPC3,inactive: -0.27
11,GAAUCAAGAAGACCCAGGATT against LASP1,inactive: -0.286
12,GGAACUAACUGAACUAGCUTT against ACSL3,inactive: 0
13,GUACAAAGCCUGUAUCUCUTT against KRT6A,inactive: -0.146
14,GCAGAUGCCGUUAAACAAATT against CAMK4,inactive: 0
15,GACCCUCGAUUACUAUUCATT against OMA1,inactive: 0
16,GGAGGUGGACACUUCAGAATT against NUCB1,inactive: 0.232
17,ACACUGACAUGGACGGGAATT against ADAMTS8,inactive: 0.115
18,CAGUUUCGAUGGAGUGAAATT against CMAS,inactive: -0.491
19,CCUCCUACUUGCCUAUCUATT against FOXH1,inactive: 0
20,CCAACACUUGGAGAUUUUUTT against ASCL2,inactive: -0.249

# Source: PubChem BioAssay AID1347426 (Functional Genomics Laboratory (NCATS/FGL), 2020)
